Whole data set: some 1,600 compounds, median “Hit score” near 0.13, cut for the highest 2% near 0.46. The list shows a part of the results.
What follows are compounds tested on SARS-CoV-2 (assay: Antiviral activity against SARS-CoV-2 (USA-WA1/2020 strain) measured by imaging in HRCE cells at MOI 0.4 after 96 hrs (reported as hit score from 0-1 for on-disease vs off-disease activity: scores >0.6 considered hits)).
Format: functional, Homo sapiens
`CN(CCOP(=O)(O)O)C(=N)N` [CREATINOLFOSFATE] was tested, and the Hit score was 0.1189. With `CC1(C)S[C@@H]2[C@H](NC(=O)[C@H](NC(=O)N3CCNC3=O)c3ccccc3)C(=O)N2[C@H]1C(=O)O` [AZLOCILLIN] the Hit score was 0.03844. `CSc1nc2cc(Cl)c(Oc3cccc(Cl)c3Cl)cc2[nH]1` [TRICLABENDAZOLE] showed a Hit score of 0.18. Work on `Cc1ccccc1N1CCN(CCc2nnc3n2CCCC3)CC1` [DAPIPRAZOLE] yielded a Hit score of 0.153. For `COc1ccc2c(c1)[C@]13CCCC[C@@H]1[C@H](C2)N(C)CC3` [DEXTROMETHORPHAN], the Hit score was 0.09056. `N#C/C(=C1/SCC(c2ccccc2Cl)S1)n1ccnc1` (configuration not stated) [LANOCONAZOLE] gave a Hit score of 0.0264. In the case of `Cc1cccc(C)c1NC(=O)c1cc(S(N)(=O)=O)c(Cl)cc1O` [XIPAMIDE], the Hit score is reported as 0.118. With `NC(=O)c1cnccn1` [PYRAZINAMIDE] the Hit score was 0.1788. Work on `Cn1cnc2c(F)c(Nc3ccc(Br)cc3F)c(C(=O)NOCCO)cc21` [BINIMETINIB] yielded a Hit score of 0.0233. `COc1c(-c2ccc3cc(NS(C)(=O)=O)ccc3c2)cc(-n2ccc(=O)[nH]c2=O)cc1C(C)(C)C` [DASABUVIR] was tested, and the Hit score was 0.3029. With `Cc1[nH]c(=O)c(C#N)cc1-c1ccc2nccn2c1` [OLPRINONE] the Hit score was 0.1194. `C[C@H](CCC(=O)O)[C@H]1CC[C@H]2[C@@H]3[C@H](O)C[C@@H]4C[C@H](O)CC[C@]4(C)[C@H]3C[C@H](O)[C@]12C` [CHOLIC ACID] showed a Hit score of 0.1604. In the case of `O[C@H]1[C@H](O)[C@@H](O)[C@H](O)[C@@H](O)[C@H]1O` [INOSITOL], the Hit score is reported as 0.1465. Work on `CCCN(CCC)CCc1cccc2c1CC(=O)N2` [ROPINIROLE] yielded a Hit score of 0.09207. Work on `COc1cccc2c1C(=O)c1c(O)c3c(c(O)c1C2=O)C[C@@](O)(C(=O)CO)C[C@@H]3O[C@H]1C[C@H](N)[C@@H](O)[C@H](C)O1` [EPIRUBICIN] yielded a Hit score of 0.0714. `N[C@@H](CCC(=O)O)C(=O)O` [GLUTAMIC ACID] was tested, and the Hit score was 0.1738. For `COc1ccc2cc([C@H](C)C(=O)O)ccc2c1` [NAPROXEN], the Hit score was 0.1887. `O=C(O)c1ccccc1OP(=O)(O)O` [FOSFOSAL] showed a Hit score of 0.1484. Work on `Cc1ncc([N+](=O)[O-])n1CC(C)O` (configuration not stated) [SECNIDAZOLE] yielded a Hit score of 0.1488. `C/C=C(/C(=C/C)c1ccc(O)cc1)c1ccc(O)cc1` [DIENESTROL] was tested, and the Hit score was 0.02745. `O=C1[C@H]2CCCC[C@H]2C(=O)N1CCCCN1CCN(c2nsc3ccccc23)CC1` [PEROSPIRONE] gave a Hit score of 0.1455. With `Cc1cc(S(=O)(=O)[O-])c2c(C)ccc(C(C)C)cc1-2.[Na+]` [SODIUM GUALENATE] the Hit score was 0.2044. With `CC(=O)NCCCCCC(=O)O` [ACEXAMIC ACID] the Hit score was 0.3113. Work on `Oc1ccnc2cc(Cl)ccc12` yielded a Hit score of 0.1769. `O=c1n(CCCN2CCN(c3cccc(Cl)c3)CC2)nc2ccccn12` [TRAZODONE] was tested, and the Hit score was 0.2113. `CC(=O)OCC(=O)[C@@]12N=C(C)O[C@@H]1C[C@H]1[C@@H]3CCC4=CC(=O)C=C[C@]4(C)[C@H]3[C@@H](O)C[C@@]12C` [DEFLAZACORT] gave a Hit score of 0.3895. `c1coc(CNc2ncnc3[nH]cnc23)c1` [KINETIN] was tested, and the Hit score was 0.2348. `CCOc1ccc2nc(S(N)(=O)=O)sc2c1` [ETHOXZOLAMIDE] was tested, and the Hit score was 0.09234. `CCOC(=O)[C@H](CCc1ccccc1)N[C@@H](C)C(=O)N1C(=O)N(C)C[C@H]1C(=O)O` showed a Hit score of 0.07158. Work on `CCOC(=O)c1cnc2c(cnn2CC)c1NN=C(C)C` [ETAZOLATE] yielded a Hit score of 0.1272. `O=C(O)c1cc(/N=N/c2ccc(S(=O)(=O)Nc3ccccn3)cc2)ccc1O` [SULFASALAZINE] was tested, and the Hit score was 0.04911. For `CC(C)N(CCCCOCC(=O)NS(C)(=O)=O)c1cnc(-c2ccccc2)c(-c2ccccc2)n1` [SELEXIPAG], the Hit score was 0.0592. `CN/C(=N\CCSCc1nc[nH]c1C)NC#N` [CIMETIDINE] was tested, and the Hit score was 0.04968. Work on `C[C@@H]1C[C@H]2[C@@H]3CCC4=CC(=O)C=C[C@]4(C)[C@@]3(F)[C@@H](O)C[C@]2(C)[C@@]1(O)C(=O)COP(=O)([O-])[O-].[Na+].[Na+]` [DEXAMETHASONE SODIUM PHOSPHATE] yielded a Hit score of 0.2627. Compound `Cc1cn(-c2cc(NC(=O)c3ccc(C)c(Nc4nccc(-c5cccnc5)n4)c3)cc(C(F)(F)F)c2)cn1` [NILOTINIB] has a Hit score of 0.4816. With `Cc1cc(O)cc(C)c1Cl` [CHLOROXYLENOL] the Hit score was 0.1774. `CC1=C(C(=O)O)N2C(=O)[C@@H](NC(=O)[C@H](N)c3ccc(O)cc3)[C@H]2SC1` [CEFADROXIL] was tested, and the Hit score was 0.046. For `Oc1cccc(O)c1` [RESORCINOL], the Hit score was 0.1269. `C[C@@H](O[C@H]1OCCN(Cc2n[nH]c(=O)[nH]2)[C@H]1c1ccc(F)cc1)c1cc(C(F)(F)F)cc(C(F)(F)F)c1` [APREPITANT] was tested, and the Hit score was -0.045. Work on `CC(Cc1ccc(O)cc1)NCC(O)c1cc(O)cc(O)c1` (configuration not stated) [FENOTEROL] yielded a Hit score of -0.1459. Work on `CC(N)CCCC(C)(C)O` (configuration not stated) [HEPTAMINOL] yielded a Hit score of 0.1609. In the case of `CCC(CC)COC(=O)[C@H](C)N[P@](=O)(OC[C@H]1O[C@@](C#N)(c2ccc3c(N)ncnn23)[C@H](O)[C@@H]1O)Oc1ccccc1`, the Hit score is reported as 0.9631. In the case of `Cc1ccccc1-n1c(CF)nc2ccc(N)cc2c1=O` [AFLOQUALONE], the Hit score is reported as 0.1208. For `COc1nccnc1NS(=O)(=O)c1ccc(N)cc1`, the Hit score was 0.2416. Work on `CC(=O)c1c(C)c2cnc(Nc3ccc(N4CCNCC4)cn3)nc2n(C2CCCC2)c1=O` [PALBOCICLIB] yielded a Hit score of 0.007482. In the case of `CC(C)OC(=O)C(C)(C)Oc1ccc(C(=O)c2ccc(Cl)cc2)cc1` [FENOFIBRATE], the Hit score is reported as 0.1371. With `OCCOc1ccc(/C(=C(/CCCl)c2ccccc2)c2ccccc2)cc1` [OSPEMIFENE] the Hit score was 0.1219. For `Cc1ccc(NC(=O)C2(c3ccc4c(c3)OC(F)(F)O4)CC2)nc1-c1cccc(C(=O)O)c1` [LUMACAFTOR], the Hit score was 0.04797. `CO[C@@]1(NC(=O)C2SC(=C(C(N)=O)C(=O)O)S2)C(=O)N2C(C(=O)O)=C(CSc3nnnn3C)CS[C@@H]21` (some centres not stated) [CEFOTETAN] was tested, and the Hit score was 0.1396. `COc1cc([C@@H]2c3cc4c(cc3[C@@H](O[C@@H]3O[C@@H]5CO[C@@H](C)O[C@H]5[C@H](O)[C@H]3O)[C@H]3COC(=O)[C@H]23)OCO4)cc(OC)c1OP(=O)(O)O` [ETOPOSIDE PHOSPHATE] was tested, and the Hit score was 0.05858. `NC(=O)CC[C@H](N)C(=O)O` [GLUTAMINE] gave a Hit score of 0.1913. `O=S(=O)(O)Oc1ccc(C(c2ccc(OS(=O)(=O)O)cc2)c2ccccn2)cc1` [PICOSULFURIC ACID] showed a Hit score of 0.001463. Compound `O=C(O[C@H]1C[N+]2(CCCOc3ccccc3)CCC1CC2)C(O)(c1cccs1)c1cccs1` has a Hit score of 0.1761. For `CCOC(=O)N1CCC(=C2c3ccc(Cl)cc3CCc3cccnc32)CC1` [LORATADINE], the Hit score was 0.1919. With `CC(C)Cc1ccc(C(C)C(=O)NO)cc1` (configuration not stated) [IBUPROXAM] the Hit score was 0.1712. `C[C@H](O)[C@H](O)[C@H]1CNc2nc(N)[nH]c(=O)c2N1` [SAPROPTERIN] showed a Hit score of 0.04545. With `CC(C)(C)N1CCC(c2ccccc2)(c2ccccc2)CC1` [BUDIPINE] the Hit score was 0.4384. `NC(=O)c1ccccc1O` [SALICYLAMIDE] showed a Hit score of 0.3054. `COc1ccc(C(=O)CCC(=O)O)c2ccccc12` [MENBUTONE] gave a Hit score of 0.04313. Compound `CS(=O)(=O)c1ccc(C(=O)Nc2ccc(Cl)c(-c3ccccn3)c2)c(Cl)c1` [VISMODEGIB] has a Hit score of 0.5244. `Sc1ncnc2nc[nH]c12` [MERCAPTOPURINE ANHYDROUS] gave a Hit score of 0.2212. With `COc1ccc(CC(C)NCC(O)c2ccc(O)c(NC=O)c2)cc1` (configuration not stated) [FORMOTEROL] the Hit score was -0.2297. With `CC(C)C[C@H](NC(=O)[C@H](Cc1ccccc1)NC(=O)c1cnccn1)B(O)O` [BORTEZOMIB] the Hit score was -0.9654. `CO/N=C(\C(=O)N[C@@H]1C(=O)N2C(C(=O)O)=C(CSc3nc(=O)c(O)nn3C)CS[C@H]12)c1csc(N)n1` [CEFTRIAXONE] was tested, and the Hit score was 0.07003. With `COCCCC/C(=N\OCCN)c1ccc(C(F)(F)F)cc1` [FLUVOXAMINE] the Hit score was 0.0531. `CC(C)C(=O)OC[C@@]1(N=[N+]=[N-])O[C@@H](n2ccc(N)nc2=O)[C@H](OC(=O)C(C)C)[C@@H]1OC(=O)C(C)C` [BALAPIRAVIR] was tested, and the Hit score was 0.3201. With `COC(=O)[C@H](c1ccccc1Cl)N1CCc2sccc2C1` [CLOPIDOGREL] the Hit score was 0.07177. `NC(=O)N[C@@H](CCC(=O)O)C(=O)O` [CARGLUMIC ACID] showed a Hit score of 0.1387. Compound `Cl.Nc1ccn([C@@H]2O[C@H](CO)[C@@H](O)C2(F)F)c(=O)n1` [GEMCITABINE HYDROCHLORIDE] has a Hit score of 0.2972. In the case of `Clc1ccc(C(OCCN2CCCCC2)c2ccccc2)cc1` (configuration not stated) [CLOPERASTINE], the Hit score is reported as 0.5618. Compound `CC/C=C\C/C=C\C/C=C\C/C=C\C/C=C\CCCC(=O)O` [ICOSAPENT] has a Hit score of 0.1484. For `CO[C@H]1/C=C/O[C@@]2(C)Oc3c(C)c(O)c4c(O)c(c(/C=N/N5CCN(C)CC5)c(O)c4c3C2=O)NC(=O)/C(C)=C\C=C\[C@H](C)[C@H](O)[C@@H](C)[C@@H](O)[C@@H](C)[C@H](OC(C)=O)[C@@H]1C` [RIFAMPIN], the Hit score was 0.08736.

— ChEMBL document CHEMBL4303122, “Identification of potential treatments for COVID-19 through artificial intelligence-enabled phenomic analysis of human cells infected with SARS-CoV-2” (2020)
